Measurements: publication PMC9525318
Results are given in words; binding and its absence hold for the method and conditions named. Some results given as binding are weak or reduced against the parent protein; the word gives no strength.

Amino acid sequences for entries named in this document (tags omitted). A change or cut given only in a name is not applied to a line headed by its entry. Residues count along the entry.
UniProt Q01668: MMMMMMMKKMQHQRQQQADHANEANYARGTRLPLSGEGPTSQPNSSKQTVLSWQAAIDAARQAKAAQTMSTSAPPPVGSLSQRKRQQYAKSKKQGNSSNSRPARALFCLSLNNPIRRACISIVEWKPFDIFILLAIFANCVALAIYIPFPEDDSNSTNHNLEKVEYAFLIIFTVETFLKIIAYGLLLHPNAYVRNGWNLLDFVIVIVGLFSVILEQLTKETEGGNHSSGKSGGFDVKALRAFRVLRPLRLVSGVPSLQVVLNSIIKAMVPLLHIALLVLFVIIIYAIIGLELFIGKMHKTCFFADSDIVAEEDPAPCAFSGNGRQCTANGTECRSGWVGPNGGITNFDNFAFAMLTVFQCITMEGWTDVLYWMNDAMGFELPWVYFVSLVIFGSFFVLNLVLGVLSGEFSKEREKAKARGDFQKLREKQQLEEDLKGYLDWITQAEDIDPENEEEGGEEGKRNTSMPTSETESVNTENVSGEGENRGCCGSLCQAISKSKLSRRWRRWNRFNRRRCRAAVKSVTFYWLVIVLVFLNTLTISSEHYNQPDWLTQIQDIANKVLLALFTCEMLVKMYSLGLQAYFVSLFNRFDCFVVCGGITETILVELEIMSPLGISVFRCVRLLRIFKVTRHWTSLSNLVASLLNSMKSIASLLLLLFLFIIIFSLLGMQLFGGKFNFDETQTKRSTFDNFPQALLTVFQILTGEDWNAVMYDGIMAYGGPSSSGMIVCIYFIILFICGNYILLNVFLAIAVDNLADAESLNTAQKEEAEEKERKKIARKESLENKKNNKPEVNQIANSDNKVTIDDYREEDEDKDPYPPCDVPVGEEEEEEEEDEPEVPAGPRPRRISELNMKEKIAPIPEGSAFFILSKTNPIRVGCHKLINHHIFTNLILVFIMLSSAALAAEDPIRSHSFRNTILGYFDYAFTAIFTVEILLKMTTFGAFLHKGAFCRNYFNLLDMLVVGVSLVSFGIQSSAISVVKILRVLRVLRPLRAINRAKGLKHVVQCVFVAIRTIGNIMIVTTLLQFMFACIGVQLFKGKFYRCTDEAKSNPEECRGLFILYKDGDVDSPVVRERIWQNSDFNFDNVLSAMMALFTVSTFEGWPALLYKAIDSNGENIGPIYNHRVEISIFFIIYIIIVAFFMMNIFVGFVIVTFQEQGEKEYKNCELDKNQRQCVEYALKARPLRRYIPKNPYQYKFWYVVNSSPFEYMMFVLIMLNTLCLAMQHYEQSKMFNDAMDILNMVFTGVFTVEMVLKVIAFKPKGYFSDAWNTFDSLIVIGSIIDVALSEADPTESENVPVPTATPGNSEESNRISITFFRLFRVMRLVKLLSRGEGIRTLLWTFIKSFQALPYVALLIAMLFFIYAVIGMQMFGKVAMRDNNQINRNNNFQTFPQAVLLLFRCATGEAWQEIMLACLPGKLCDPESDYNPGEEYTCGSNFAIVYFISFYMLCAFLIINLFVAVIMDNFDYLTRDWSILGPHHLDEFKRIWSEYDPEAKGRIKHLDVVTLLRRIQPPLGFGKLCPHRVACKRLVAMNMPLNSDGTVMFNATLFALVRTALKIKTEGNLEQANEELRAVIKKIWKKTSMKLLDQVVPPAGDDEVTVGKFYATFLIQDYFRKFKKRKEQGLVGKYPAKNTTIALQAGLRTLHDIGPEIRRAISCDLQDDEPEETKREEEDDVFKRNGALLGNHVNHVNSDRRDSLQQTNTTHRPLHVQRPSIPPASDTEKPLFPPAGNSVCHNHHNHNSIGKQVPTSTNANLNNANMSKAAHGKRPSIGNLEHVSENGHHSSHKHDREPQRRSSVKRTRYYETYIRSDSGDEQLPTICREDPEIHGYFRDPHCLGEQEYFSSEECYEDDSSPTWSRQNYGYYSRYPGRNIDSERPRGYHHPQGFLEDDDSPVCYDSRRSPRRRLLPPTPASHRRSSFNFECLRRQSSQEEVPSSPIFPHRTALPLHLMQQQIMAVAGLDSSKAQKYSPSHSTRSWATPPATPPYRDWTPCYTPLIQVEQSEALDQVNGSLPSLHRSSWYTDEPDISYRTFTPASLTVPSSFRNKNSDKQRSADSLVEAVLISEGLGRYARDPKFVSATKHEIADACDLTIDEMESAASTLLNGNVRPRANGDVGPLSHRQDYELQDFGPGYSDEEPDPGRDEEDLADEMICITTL
UniProt P54289, residues 25-1103: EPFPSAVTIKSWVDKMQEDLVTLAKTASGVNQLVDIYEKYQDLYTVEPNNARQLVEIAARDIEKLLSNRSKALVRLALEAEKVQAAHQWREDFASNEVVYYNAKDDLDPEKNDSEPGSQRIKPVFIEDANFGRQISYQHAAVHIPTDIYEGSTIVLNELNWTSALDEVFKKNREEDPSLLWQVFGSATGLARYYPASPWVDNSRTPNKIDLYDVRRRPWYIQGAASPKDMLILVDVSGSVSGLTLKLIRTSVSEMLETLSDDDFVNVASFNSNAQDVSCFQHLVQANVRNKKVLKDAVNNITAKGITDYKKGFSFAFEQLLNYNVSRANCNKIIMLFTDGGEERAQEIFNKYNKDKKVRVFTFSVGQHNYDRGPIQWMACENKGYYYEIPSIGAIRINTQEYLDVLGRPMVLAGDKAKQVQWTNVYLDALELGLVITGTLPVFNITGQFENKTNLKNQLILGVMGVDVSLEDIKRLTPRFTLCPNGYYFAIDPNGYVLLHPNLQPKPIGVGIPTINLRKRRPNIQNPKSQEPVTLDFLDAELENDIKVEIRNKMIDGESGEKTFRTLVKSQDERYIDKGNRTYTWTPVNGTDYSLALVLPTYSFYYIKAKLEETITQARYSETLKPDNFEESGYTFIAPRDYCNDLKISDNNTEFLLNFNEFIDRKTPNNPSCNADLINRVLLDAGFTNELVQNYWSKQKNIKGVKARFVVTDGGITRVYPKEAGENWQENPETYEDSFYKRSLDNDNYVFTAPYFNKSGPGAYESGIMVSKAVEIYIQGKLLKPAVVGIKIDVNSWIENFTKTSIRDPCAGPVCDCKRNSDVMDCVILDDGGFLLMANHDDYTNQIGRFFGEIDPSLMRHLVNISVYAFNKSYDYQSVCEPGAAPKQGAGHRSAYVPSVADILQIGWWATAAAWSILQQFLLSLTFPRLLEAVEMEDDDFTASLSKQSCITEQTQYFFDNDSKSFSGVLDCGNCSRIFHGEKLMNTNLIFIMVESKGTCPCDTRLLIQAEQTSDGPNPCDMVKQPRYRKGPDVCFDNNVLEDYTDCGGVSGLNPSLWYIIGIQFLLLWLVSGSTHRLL

Target: human Cav1.3 pore-forming α1 subunit (human) (UniProt Q01668)
Assay: cryo-EM structure; complex of α1, α2δ-1 and β3 co-expressed in HEK293F, purified by affinity and size exclusion chromatography; incubated with 250 μM cinnarizine or 150 μM cp-PYT (the latter taken as apo); both purified

- binding: binds
Substance: auxiliary α2δ-1 subunit of the human Cav1.3 complex (from UniProt P54289 25-1103)
